In assay [1] the target is T1, Myc-mPCM1 fragment spanning residues 1–1200 (mouse) (UniProt Q9R0L6).
T1 sequence: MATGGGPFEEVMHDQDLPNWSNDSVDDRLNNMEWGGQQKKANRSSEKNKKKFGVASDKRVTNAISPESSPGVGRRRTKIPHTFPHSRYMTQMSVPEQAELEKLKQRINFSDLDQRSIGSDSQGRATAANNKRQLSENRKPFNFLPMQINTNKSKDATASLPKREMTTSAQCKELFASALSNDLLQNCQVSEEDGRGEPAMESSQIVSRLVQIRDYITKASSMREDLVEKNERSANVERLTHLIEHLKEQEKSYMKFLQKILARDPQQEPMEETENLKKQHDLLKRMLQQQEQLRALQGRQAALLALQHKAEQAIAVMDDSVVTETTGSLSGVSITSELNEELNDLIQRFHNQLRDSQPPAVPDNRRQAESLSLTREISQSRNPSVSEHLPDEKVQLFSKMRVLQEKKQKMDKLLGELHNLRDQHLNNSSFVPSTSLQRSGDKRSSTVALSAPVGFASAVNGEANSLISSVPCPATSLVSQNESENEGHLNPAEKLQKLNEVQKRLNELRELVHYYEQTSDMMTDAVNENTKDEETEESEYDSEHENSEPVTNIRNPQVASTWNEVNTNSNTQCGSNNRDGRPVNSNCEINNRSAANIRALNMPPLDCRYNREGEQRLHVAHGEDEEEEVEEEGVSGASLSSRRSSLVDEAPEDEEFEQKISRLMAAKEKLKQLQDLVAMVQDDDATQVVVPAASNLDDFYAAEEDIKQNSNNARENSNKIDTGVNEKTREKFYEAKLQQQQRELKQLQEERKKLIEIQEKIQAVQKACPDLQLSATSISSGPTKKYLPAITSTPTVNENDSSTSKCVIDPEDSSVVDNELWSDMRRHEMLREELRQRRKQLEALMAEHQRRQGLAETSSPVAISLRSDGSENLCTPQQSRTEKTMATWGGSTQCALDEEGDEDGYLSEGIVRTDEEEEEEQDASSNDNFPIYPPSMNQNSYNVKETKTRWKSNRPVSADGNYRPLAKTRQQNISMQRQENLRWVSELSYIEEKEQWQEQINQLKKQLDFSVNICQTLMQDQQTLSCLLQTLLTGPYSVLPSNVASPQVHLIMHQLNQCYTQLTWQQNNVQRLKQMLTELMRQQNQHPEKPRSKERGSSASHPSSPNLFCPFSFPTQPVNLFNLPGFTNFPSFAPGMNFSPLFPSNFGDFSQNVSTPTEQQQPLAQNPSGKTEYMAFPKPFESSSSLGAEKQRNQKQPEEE
The assay is described as follows: co-IP; HEK293T transfected with Myc-mPCM1 fragments for 48 h; lysates in ELB buffer (50 mM Hepes pH 7, 150 mM NaCl, 5 mM EDTA, 0.1% NP-40); anti-Myc antibody on Protein G Sepharose, 4°C; western blot for endogenous satellite proteins. (Immunoblotting shows a protein as a band on a membrane.)

The chains behind the UniProt entries cited, without tags or fusion partners.
UniProt Q4AC94: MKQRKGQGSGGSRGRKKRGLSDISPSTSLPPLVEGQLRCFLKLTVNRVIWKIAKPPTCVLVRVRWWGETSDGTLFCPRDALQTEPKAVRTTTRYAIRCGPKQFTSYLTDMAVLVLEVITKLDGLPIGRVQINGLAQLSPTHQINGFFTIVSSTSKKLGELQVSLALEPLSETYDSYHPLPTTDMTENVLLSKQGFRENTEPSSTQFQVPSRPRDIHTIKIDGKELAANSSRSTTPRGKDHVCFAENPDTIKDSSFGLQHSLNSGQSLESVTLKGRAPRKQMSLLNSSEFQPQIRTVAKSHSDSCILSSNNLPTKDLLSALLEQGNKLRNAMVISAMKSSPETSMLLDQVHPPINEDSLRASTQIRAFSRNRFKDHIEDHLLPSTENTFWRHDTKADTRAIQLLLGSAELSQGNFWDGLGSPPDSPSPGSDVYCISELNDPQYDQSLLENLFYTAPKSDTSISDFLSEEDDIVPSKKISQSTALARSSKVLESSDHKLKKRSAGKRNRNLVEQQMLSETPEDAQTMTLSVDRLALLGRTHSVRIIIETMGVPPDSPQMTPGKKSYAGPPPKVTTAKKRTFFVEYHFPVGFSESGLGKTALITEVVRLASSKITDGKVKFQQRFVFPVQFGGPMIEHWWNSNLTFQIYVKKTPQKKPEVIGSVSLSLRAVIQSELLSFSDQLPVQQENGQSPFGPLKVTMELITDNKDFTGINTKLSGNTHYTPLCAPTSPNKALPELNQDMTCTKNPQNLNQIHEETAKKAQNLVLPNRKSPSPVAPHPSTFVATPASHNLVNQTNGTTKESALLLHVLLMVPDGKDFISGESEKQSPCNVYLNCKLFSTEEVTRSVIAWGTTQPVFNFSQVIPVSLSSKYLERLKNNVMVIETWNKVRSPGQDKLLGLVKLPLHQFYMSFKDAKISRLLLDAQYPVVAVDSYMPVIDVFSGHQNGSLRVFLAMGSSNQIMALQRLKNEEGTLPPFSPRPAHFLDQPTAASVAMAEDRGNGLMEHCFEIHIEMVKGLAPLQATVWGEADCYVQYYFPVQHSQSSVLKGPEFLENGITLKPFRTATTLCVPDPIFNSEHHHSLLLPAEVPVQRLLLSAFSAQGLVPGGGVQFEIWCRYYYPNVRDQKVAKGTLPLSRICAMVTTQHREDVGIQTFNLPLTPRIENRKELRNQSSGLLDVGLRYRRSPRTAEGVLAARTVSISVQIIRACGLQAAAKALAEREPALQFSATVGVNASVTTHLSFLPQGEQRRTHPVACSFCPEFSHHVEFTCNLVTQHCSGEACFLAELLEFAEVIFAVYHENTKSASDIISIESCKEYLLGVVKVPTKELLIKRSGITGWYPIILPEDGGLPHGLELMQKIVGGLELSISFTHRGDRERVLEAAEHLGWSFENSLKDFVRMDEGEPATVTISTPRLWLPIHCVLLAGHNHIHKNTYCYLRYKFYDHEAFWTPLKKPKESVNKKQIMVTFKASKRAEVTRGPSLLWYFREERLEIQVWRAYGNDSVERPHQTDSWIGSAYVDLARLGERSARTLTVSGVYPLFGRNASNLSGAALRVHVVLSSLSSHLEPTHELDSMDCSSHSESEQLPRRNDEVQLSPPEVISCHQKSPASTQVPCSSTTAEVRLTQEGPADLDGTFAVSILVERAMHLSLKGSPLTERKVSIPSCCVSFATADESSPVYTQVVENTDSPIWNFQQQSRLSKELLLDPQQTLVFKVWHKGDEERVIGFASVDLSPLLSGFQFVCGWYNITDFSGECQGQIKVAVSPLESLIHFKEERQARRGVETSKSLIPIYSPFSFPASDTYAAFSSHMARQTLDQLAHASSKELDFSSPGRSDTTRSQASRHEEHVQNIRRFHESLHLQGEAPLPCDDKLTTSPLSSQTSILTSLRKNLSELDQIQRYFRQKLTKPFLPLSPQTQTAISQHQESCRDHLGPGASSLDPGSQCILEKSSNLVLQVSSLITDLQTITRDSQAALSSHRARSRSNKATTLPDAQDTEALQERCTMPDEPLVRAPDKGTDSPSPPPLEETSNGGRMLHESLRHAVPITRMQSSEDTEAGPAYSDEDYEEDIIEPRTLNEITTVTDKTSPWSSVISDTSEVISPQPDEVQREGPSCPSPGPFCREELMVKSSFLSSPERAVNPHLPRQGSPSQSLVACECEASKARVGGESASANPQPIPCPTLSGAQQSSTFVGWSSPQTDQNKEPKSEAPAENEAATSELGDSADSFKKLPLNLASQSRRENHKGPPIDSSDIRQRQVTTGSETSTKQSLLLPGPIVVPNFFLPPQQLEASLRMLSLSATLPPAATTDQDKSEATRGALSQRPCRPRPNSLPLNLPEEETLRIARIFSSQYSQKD
UniProt O15078: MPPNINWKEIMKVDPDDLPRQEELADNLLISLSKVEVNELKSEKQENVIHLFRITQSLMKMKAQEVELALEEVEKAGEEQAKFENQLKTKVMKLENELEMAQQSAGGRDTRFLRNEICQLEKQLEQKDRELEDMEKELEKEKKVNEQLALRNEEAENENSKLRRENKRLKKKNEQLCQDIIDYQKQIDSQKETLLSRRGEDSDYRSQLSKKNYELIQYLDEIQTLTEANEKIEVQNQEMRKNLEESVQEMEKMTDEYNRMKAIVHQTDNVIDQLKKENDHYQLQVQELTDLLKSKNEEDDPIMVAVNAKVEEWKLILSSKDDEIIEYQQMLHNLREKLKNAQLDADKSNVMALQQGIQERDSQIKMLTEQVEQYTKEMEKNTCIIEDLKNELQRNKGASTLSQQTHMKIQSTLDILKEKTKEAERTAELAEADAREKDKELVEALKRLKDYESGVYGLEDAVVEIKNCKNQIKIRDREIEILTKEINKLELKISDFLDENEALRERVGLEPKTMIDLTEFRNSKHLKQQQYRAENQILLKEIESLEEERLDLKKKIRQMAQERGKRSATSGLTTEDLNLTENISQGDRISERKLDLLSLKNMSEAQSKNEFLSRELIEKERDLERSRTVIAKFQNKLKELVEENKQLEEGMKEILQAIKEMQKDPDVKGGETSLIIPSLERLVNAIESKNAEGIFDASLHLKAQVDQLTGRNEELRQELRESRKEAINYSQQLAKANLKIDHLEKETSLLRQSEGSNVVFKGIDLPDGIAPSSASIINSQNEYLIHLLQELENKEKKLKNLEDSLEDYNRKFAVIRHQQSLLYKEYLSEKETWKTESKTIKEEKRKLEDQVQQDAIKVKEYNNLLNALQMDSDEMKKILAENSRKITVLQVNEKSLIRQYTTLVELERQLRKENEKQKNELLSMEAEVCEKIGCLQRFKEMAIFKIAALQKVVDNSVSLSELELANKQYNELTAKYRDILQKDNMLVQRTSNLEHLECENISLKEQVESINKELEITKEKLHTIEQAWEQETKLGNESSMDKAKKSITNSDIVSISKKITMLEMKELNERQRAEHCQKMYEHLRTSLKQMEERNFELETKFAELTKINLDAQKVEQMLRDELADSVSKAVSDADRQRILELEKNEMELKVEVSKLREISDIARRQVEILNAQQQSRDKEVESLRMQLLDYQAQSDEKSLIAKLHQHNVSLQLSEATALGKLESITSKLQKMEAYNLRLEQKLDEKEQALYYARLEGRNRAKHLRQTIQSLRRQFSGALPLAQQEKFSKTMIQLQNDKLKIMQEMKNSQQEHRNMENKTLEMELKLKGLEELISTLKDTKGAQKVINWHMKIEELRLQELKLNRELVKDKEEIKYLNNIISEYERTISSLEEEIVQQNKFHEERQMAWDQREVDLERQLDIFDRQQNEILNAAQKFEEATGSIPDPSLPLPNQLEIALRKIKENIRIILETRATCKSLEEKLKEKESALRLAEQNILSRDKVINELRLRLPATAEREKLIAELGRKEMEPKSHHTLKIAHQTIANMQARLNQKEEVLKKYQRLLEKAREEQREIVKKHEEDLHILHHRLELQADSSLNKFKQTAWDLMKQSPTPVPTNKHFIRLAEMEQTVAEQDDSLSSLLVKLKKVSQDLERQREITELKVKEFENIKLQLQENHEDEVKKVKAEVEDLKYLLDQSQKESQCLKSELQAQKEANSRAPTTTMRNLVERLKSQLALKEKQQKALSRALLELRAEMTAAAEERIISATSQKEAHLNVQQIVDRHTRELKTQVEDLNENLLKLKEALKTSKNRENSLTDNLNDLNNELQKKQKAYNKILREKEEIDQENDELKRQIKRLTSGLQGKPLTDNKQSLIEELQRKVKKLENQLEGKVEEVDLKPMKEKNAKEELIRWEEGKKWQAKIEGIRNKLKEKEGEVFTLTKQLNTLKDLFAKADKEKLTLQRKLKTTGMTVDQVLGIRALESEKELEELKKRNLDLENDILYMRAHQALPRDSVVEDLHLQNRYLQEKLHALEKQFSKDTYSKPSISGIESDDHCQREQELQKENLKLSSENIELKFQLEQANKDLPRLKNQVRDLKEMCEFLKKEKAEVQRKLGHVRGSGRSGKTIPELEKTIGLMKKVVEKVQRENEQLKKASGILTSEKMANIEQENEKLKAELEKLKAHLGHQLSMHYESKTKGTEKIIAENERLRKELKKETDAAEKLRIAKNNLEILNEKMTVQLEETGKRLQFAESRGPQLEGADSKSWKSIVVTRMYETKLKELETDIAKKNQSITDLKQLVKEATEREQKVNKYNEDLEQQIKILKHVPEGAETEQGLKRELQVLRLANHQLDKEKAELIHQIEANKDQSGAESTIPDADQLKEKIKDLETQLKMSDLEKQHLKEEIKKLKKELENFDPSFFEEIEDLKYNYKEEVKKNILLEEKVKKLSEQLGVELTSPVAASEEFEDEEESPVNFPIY

The target in assay [2] is Myc-tagged full-length mouse PCM1 (mouse) (UniProt Q9R0L6). Described as above.
In assay [3] the target is T1, Myc-mPCM1 fragment spanning residues 1–1200 (mouse). The assay is described as follows: co-IP; data not shown: Cep290 with PCM1 fragments.
The target of assay [4] is T2, Myc-mPCM1 fragment spanning residues 1–1500 (mouse) (UniProt Q9R0L6).
T2 sequence: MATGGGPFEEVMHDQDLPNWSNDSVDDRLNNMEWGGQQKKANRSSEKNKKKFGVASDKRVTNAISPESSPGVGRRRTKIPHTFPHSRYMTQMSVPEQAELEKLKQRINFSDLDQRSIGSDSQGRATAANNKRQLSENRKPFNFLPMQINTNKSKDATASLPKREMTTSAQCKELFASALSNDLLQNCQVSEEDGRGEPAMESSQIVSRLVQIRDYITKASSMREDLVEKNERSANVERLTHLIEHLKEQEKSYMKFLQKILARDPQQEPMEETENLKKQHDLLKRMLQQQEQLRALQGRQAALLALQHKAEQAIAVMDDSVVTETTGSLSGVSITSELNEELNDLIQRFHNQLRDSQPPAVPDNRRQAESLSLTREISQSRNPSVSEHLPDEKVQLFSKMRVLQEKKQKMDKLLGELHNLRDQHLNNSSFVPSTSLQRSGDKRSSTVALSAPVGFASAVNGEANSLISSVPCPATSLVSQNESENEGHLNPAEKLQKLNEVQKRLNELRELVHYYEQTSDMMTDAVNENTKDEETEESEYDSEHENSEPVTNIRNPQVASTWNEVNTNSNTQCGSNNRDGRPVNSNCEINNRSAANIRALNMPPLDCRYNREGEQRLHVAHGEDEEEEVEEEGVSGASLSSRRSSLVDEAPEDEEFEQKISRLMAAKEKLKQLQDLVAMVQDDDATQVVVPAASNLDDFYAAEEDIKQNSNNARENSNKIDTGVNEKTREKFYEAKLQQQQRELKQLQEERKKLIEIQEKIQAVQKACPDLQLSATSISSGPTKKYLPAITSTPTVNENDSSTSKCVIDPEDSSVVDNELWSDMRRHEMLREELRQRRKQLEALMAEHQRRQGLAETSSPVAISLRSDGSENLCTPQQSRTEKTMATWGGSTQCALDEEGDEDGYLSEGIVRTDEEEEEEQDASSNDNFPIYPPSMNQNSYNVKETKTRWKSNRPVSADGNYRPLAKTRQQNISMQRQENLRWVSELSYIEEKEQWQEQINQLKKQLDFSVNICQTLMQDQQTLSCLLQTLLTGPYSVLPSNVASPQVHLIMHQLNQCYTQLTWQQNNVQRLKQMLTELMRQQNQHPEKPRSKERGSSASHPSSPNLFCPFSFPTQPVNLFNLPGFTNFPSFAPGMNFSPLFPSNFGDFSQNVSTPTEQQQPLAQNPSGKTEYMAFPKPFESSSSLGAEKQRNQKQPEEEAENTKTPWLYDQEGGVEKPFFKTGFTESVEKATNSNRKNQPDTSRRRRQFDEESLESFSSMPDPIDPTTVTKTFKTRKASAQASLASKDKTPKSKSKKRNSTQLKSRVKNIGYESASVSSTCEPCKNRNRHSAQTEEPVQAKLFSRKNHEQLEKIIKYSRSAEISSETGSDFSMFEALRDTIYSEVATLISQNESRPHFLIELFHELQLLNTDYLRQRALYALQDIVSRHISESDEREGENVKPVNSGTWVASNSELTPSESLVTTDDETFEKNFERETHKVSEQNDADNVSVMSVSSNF
The experiment in a line: co-IP; data not shown: Cep290 with PCM1 fragments.

Assay [5] deals with T2, Myc-mPCM1 fragment spanning residues 1–1500 (mouse). The experiment in a line: co-IP; HEK293T transfected with Myc-mPCM1 fragments for 48 h; lysates in ELB buffer (50 mM Hepes pH 7, 150 mM NaCl, 5 mM EDTA, 0.1% NP-40); anti-Myc antibody on Protein G Sepharose, 4°C; western blot for endogenous satellite proteins.

No constants are given. Whether binding was seen depends on the method and setting. In cells and extracts the contact can be indirect. Some binding calls cover weakened binding; strength is not graded here. For part of these data: Where a sequence is shown, tags or fusion partners need not be part of it.

For the molecule “C2CD3, endogenous (from UniProt Q4AC94 1-2353)”, the binding entry is “no binding” in assay [1] and “binds” in assay [2].
Regarding “Cep290, endogenous (from UniProt O15078 1-2479)”, the binding entry in assay [3] and in assay [4] was “binds” each time.

B1: Cep90, endogenous (protein, UniProt Q8WXW3 1-757)
chain: MSRKISKESKKVNISSSLESEDISLETTVPTDDISSSEEREGKVRITRQLIERKELLHNIQLLKIELSQKTMMIDNLKVDYLTKIEELEEKLNDALHQKQLLTLRLDNQLAFQQKDASKYQELMKQEMETILLRQKQLEETNLQLREKAGDVRRNLRDFELTEEQYIKLKAFPEDQLSIPEYVSVRFYELVNPLRKEICELQVKKNILAEELSTNKNQLKQLTETYEEDRKNYSEVQIRCQRLALELADTKQLIQQGDYRQENYDKVKSERDALEQEVIELRRKHEILEASHMIQTKERSELSKEVVTLEQTVTLLQKDKEYLNRQNMELSVRCAHEEDRLERLQAQLEESKKAREEMYEKYVASRDHYKTEYENKLHDELEQIRLKTNQEIDQLRNASREMYERENRNLREARDNAVAEKERAVMAEKDALEKHDQLLDRYRELQLSTESKVTEFLHQSKLKSFESERVQLLQEETARNLTQCQLECEKYQKKLEVLTKEFYSLQASSEKRITELQAQNSEHQARLDIYEKLEKELDEIIMQTAEIENEDEAERVLFSYGYGANVPTTAKRRLKQSVHLARRVLQLEKQNSLILKDLEHRKDQVTQLSQELDRANSLLNQTQQPYRYLIESVRQRDSKIDSLTESIAQLEKDVSNLNKEKSALLQTKNQMALDLEQLLNHREELAAMKQILVKMHSKHSENSLLLTKTEPKHVTENQKSKTLNVPKEHEDNIFTPKPTLFTKKEAPEWSKKQKMKT
In the case of B1, the binding entry in assay [1] is on record as “no binding”; in assay [2], “binds”.

B2: OFD1, endogenous (protein, UniProt O75665 1-1012)
chain: MMAQSNMFTVADVLSQDELRKKLYQTFKDRGILDTLKTQLRNQLIHELMHPVLSGELQPRSISVEGSSLLIGASNSLVADHLQRCGYEYSLSVFFPESGLAKEKVFTMQDLLQLIKINPTSSLYKSLVSGSDKENQKGFLMHFLKELAEYHQAKESCNMETQTSSTFNRDSLAEKLQLIDDQFADAYPQRIKFESLEIKLNEYKREIEEQLRAEMCQKLKFFKDTEIAKIKMEAKKKYEKELTMFQNDFEKACQAKSEALVLREKSTLERIHKHQEIETKEIYAQRQLLLKDMDLLRGREAELKQRVEAFELNQKLQEEKHKSITEALRRQEQNIKSFEETYDRKLKNELLKYQLELKDDYIIRTNRLIEDERKNKEKAVHLQEELIAINSKKEELNQSVNRVKELELELESVKAQSLAITKQNHMLNEKVKEMSDYSLLKEEKLELLAQNKLLKQQLEESRNENLRLLNRLAQPAPELAVFQKELRKAEKAIVVEHEEFESCRQALHKQLQDEIEHSAQLKAQILGYKASVKSLTTQVADLKLQLKQTQTALENEVYCNPKQSVIDRSVNGLINGNVVPCNGEISGDFLNNPFKQENVLARMVASRITNYPTAWVEGSSPDSDLEFVANTKARVKELQQEAERLEKAFRSYHRRVIKNSAKSPLAAKSPPSLHLLEAFKNITSSSPERHIFGEDRVVSEQPQVGTLEERNDVVEALTGSAASRLRGGTSSRRLSSTPLPKAKRSLESEMYLEGLGRSHIASPSPCPDRMPLPSPTESRHSLSIPPVSSPPEQKVGLYRRQTELQDKSEFSDVDKLAFKDNEEFESSFESAGNMPRQLEMGGLSPAGDMSHVDAAAAAVPLSYQHPSVDQKQIEEQKEEEKIREQQVKERRQREERRQSNLQEVLERERRELEKLYQERKMIEESLKIKIKKELEMENELEMSNQEIKDKSAHSENPLEKYMKIIQQEQDQESADKSSKKMVQEGSLVDTLQSSDKVESLTGFSHEELDDSW
Consider B2, for which the binding result in assay [1], in assay [5] and in assay [2] was “binds” each time.
